Among all 400,000 compounds or so, about 13,000 (3.2%) were called active. The inconclusive results got no clear call from the source; some entries with a clear call stand among them for comparison. Calls come from the whole dose curve; as a rule, active = well fitted cell-killing curve with a large enough effect; inconclusive = small, poorly fitted or top-dose-only effect, or effect the other way; inactive = flat fitted curve, though single readings scatter. Where the call is inconclusive, the potency comes from a doubtful curve fit.
Test: qHTS assay for MDR1-selective chemotherapeutics: Primary screen using the drug-selected MDR subline cells KB-V1; note: nearly all actives have a fitted effect of over 60% in size
Conditions: KB-V1 MDR cells viability, CellTiter-Glo, 72 h; series mostly up to 46.1 µM
Procedure, shortened: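 KB-V1 MDR subline cells in DMEM (phenol-red free, 10% FBS) exposed to compounds in qHTS concentration series for 72 h at 37 degrees C. Viability read by CellTiter-Glo luminescence; concentration-effect curves fitted after normalization and correction.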
Potency is the fitted concentration of half-maximal effect.

Compound | Potency
CN(CCO)C1=NS(=O)(=O)c2cc([N+](=O)[O-])ccc21 | inactive
CCCCc1nc2ccccc2c(NC(=O)CN2CCN(C)CC2)c1CCC | active: 8.2 µM
CCc1ccc(C2=NNC(=Nc3cccc(S(=O)(=O)N(C)C)c3)SC2)cc1 | inconclusive: 14.6 µM [cytotoxic, partial curve]
c1ccc(Nc2c3c(nc4ccccc24)CCC3)cc1 | inconclusive: 9.2 µM [cytotoxic, partial curve]
Cc1sc(NC(=O)c2ccccc2F)c(CN2CCCCC2C)c1C (configuration not stated) | inconclusive: 18.4 µM [cytotoxic, single point]
COC(=O)c1cccc(NC2CC(=O)N(c3ccc(OC)c(OC)c3)C2=O)c1 (configuration not stated) | inactive
O=C(O)CSc1nc2ccc(C(=O)c3ccccc3)cc2[nH]1 | inconclusive: 18.4 µM [rising, single point]
O=C(Nc1nc2ccccc2[nH]1)c1ccc([N+](=O)[O-])cc1 | inconclusive: 32.6 µM [rising, single point]
Nc1c(S(=O)(=O)c2cccc(Cl)c2)c2nc3ccccc3nc2n1CCN1CCOCC1 | inconclusive: 7.31 µM [cytotoxic, partial curve]
COc1cc2c(cc1OC)C(C)N(C(=O)Nc1ccccc1)CC2 (configuration not stated) | inconclusive: 5.8 µM [cytotoxic, full curve, poor fit]
Cc1cc(NC(=O)CC2CCCC2)n(-c2nc3ccccc3[nH]2)n1 | active: 18.4 µM
O=S(=O)(c1ccc(-c2csc(-c3cccnc3)n2)cc1)N1CCOCC1 | inconclusive: 23.1 µM [cytotoxic, single point]
CC(CNS(=O)(=O)c1ccc2c(c1)CC(=O)N2C)c1ccccc1 (configuration not stated) | inconclusive: 29.1 µM [cytotoxic, single point]
O=C(CSc1nnc(CCc2ccccc2)n1-c1ccc(Cl)cc1)NCc1ccccc1 | inconclusive: 29.1 µM [cytotoxic, single point]
CC(C)(C)OC(=O)NCCCC[C@H](NC(=O)c1nc[nH]c1C(=O)NCc1ccccc1)C(=O)OC(C)(C)C | inactive
O=C(CCOc1ccccc1)Nc1ccnn1C1CCN(Cc2ccc(O)cc2)CC1 | inconclusive: 5.8 µM [rising, full curve]
COc1ccc(C(=O)NCCn2cc(SCc3cc(C)ccc3C)c3ccccc32)cc1 | inconclusive: 32.6 µM [cytotoxic, single point]
CCC(C)[C@H](NC(=O)Nc1ccccc1F)C(=O)OC (some centres not stated) | inconclusive: 5.17 µM [rising, partial curve, poor fit]
CCOC(=O)c1cc(-c2ccc(C)cc2)nc2nc(SC)[nH]c(=O)c12 | inconclusive: 5.17 µM [cytotoxic, full curve]
CC(NC(=O)c1cccc(C(F)(F)F)c1)C(c1ccccc1)N1CCOCC1 (configuration not stated) | inconclusive: 13 µM [cytotoxic, partial curve]
CN(C#N)c1nc(Cl)nc(Nc2cccc(Cl)c2)n1 | inactive
Cc1cccc(C)c1OCc1cc(C(=O)N(Cc2nccn2C)C(C)C)no1 | inconclusive: 4.61 µM [cytotoxic, partial curve]
CCOc1ccccc1NC(=S)Nc1ncccc1C | active: 20.6 µM

Compound | Potency
O=C(OCC(=O)N1CCCC1=O)c1nc(Cl)ccc1Cl | inconclusive: 6.51 µM [rising, partial curve, poor fit]
CS(=O)(=O)c1ccc2nc(NC(=O)CN3CCOCC3)sc2c1 | inconclusive: 18.4 µM [rising, single point]
N#CCC(=O)N/N=C/c1ccc(Cl)cc1 | inconclusive: 5.17 µM [cytotoxic, full curve, poor fit]
CC(Oc1ccccc1F)c1nnc(SCC(=O)Nc2ccc(N3CCOCC3)cc2)o1 (configuration not stated) | inactive
Cc1cc(N2CCN(c3cccc(C)c3C)CC2)n2nc(C)c(-c3ccc(Cl)cc3)c2n1 | inconclusive: 3.66 µM [rising, partial curve, poor fit]
N#CC1(C#N)COC23CCCCC2C1(C#N)C(=N)O3 (configuration not stated) | inconclusive: 18.4 µM [cytotoxic, partial curve, poor fit]
COc1ccc(CN2CCN(C(=O)Cn3c(=O)oc4cc(Cl)ccc43)CC2)c(OC)c1OC | inactive
CCN1CCN(c2ccc(S(=O)(=O)N3CCOCC3)cc2NC(=O)C(C)Oc2cccc(Cl)c2)CC1 (configuration not stated) | inactive
COc1ccc(-c2cc(C(=O)OCC(=O)N3CCCC3)c3ccccc3n2)cc1 | inconclusive: 10.3 µM [cytotoxic, single point]
CN(CC(=O)Nc1ccccc1Br)C(=O)c1cccc([N+](=O)[O-])c1 | inconclusive: 16.4 µM [cytotoxic, partial curve]
COc1ccc(-n2c(-c3ccco3)nc3c(cnn3-c3ccccc3C)c2=O)cc1 | inconclusive: 18.4 µM [cytotoxic, single point]
CCCCN(C=O)c1c(CC)nc2c(OCc3ccc(Cl)cc3)cccn12 | inconclusive: 11.6 µM [cytotoxic, partial curve]
Cc1ccc([C@H]2C[C@@H](n3cc(-c4ccc(F)cc4)nn3)[C@H](O)CN2CC2CCCCC2)cc1 | inconclusive: 18.4 µM [cytotoxic, single point]
OCCC1CN(Cc2cccn2-c2ncccn2)CCN1CCc1ccccc1 (configuration not stated) | inconclusive: 14.6 µM [cytotoxic, partial curve, poor fit]
Cc1ccc(S(=O)(=O)Nc2cccc3cccnc23)cc1 | inconclusive: 23.1 µM [cytotoxic, single point]
CC(C)(C)Cc1nnc(NS(=O)(=O)c2ccc([N+](=O)[O-])cc2)s1 | inactive
O=C(CCCCCNC(=O)N1CCn2c1nc1ccccc12)NCc1ccccc1Cl | inconclusive: 29.1 µM [rising, single point]
O=C(c1ccccc1)c1coc(-c2ccccc2)c1 | inconclusive: 0.231 µM [rising, full curve, poor fit]
CC(=O)NC(CC(=O)OC(C)C(=O)Nc1ncc(Cl)cc1Cl)c1ccccc1 (configuration not stated) | inactive
O=C(Nc1ccccc1)N(C1=NCCCCS1)c1cccc2ccccc12 | inconclusive: 23.1 µM [cytotoxic, single point]
COc1ccccc1CNC(=O)CNC(=O)N1CC(=O)Nc2ccccc21 | inconclusive: 23.1 µM [rising, single point]
COc1ccc(N/N=C(\C#N)C(=N)SCc2ccccc2)cc1 | inactive
COc1ccc(Nc2cnn(-c3nc4ccccc4s3)c(=O)c2Cl)cc1 | active: 20.6 µM

Compound | Potency
Cc1nn(-c2ccccc2)c(C)c1C(=O)OC(C)C(=O)NC1CCCCC1 (configuration not stated) | inactive
COc1ccc(C(C(=O)NC2CCCCC2)n2c(=O)c(-c3cc4ccccc4[nH]3)nc3ccccc32)cc1 (configuration not stated) | inactive
O=S(=O)(c1cccc2cccnc12)N1CCN(c2ccccn2)CC1 | inconclusive: 13 µM [cytotoxic, partial curve]
O=C(Cc1c[nH]c2ccccc12)N/N=C/c1ccc(F)cc1 | inactive
COc1ccc(NC(=O)CN(C)CC(=O)NCCc2ccc(F)cc2)cc1 | inactive
CC(=O)c1cccc(-c2ccnc3c2CC(C(=O)Nc2cccc(Oc4ccccc4)c2)O3)c1 (configuration not stated) | inconclusive: 20.6 µM [cytotoxic, single point]
COc1ccc2c(c1)C=C(CN1CCN(C(C)C)C(CCO)C1)CO2 (configuration not stated) | inconclusive: 0.0073 µM [cytotoxic, full curve]
COc1ccc(-c2nnc(SCc3cccc(C#N)c3)o2)cc1 | inconclusive: 16.4 µM [cytotoxic, partial curve]
CC1(c2ccc(OC(F)F)cc2)NC(=O)N(CC(=O)N2c3ccccc3NC(=O)C2(C)C)C1=O (configuration not stated) | inactive
O=C(Nc1ccc(Br)cc1)c1cc(-c2ccncc2)nc2ccccc12 | inactive
OCC1OC(n2cnc3c(SCc4ccccc4)nc(F)nc32)C(O)C1O (configuration not stated) | inconclusive: 9.2 µM [rising, partial curve]
CN(c1cccc(NC(=O)CN(c2ccc(Cl)c(Cl)c2)S(=O)(=O)c2ccccc2)c1)S(C)(=O)=O | inconclusive: 29.1 µM [cytotoxic, single point]
COc1ccc2cc(C3CC=C(COC(C)=O)CN3S(=O)(=O)c3ccccc3[N+](=O)[O-])n(C(=O)OC(C)(C)C)c2c1 (configuration not stated) | inconclusive: 10.3 µM [cytotoxic, partial curve]
Cc1cc(C)cc(NC(=O)CSc2nc3ccccc3nc2N2CCCCC2)c1 | inconclusive: 0.0146 µM [cytotoxic, full curve]
c1ccc(-c2nc3nonc3nc2-c2ccccc2)cc1 | inconclusive: 11.6 µM [cytotoxic, partial curve]
CCN(CC(=O)Nc1ccccc1C(F)(F)F)C(=O)c1cc(S(=O)(=O)N2CCCCCC2)ccc1OC | inconclusive: 7.31 µM [cytotoxic, partial curve, poor fit]
CCOc1ccc(S(=O)(=O)N2CCCC(C(=O)N3CCC(C(N)=O)CC3)C2)cc1Cl (configuration not stated) | inactive
O=C(c1ccncc1)N(c1ccc2oc3c(c2c1)CCCC3)S(=O)(=O)c1ccc(F)cc1 | inconclusive: 29.1 µM [cytotoxic, single point]
CCOC(=O)CCCNC(=O)COC(=O)/C=C/c1ccc2c(c1)OCO2 | inconclusive: 29.1 µM [rising, single point]
Cn1c(=O)oc2cc(S(=O)(=O)NCCC(=O)NCc3ccc(F)cc3)ccc21 | inconclusive: 1.46 µM [rising, full curve, poor fit]
Cn1nc(C(=O)NCc2ccc(F)cc2)c2ccccc2c1=O | inconclusive: 18.4 µM [cytotoxic, partial curve]
